Test results taken from the supplement of paper PMC12823440, “Inhibitors supercharge kinase turnover through native proteolytic circuits” (Nature, 2025).
Where a name gives a salt, the structure may show the parent alone. This is one part of the list. Hit calls seldom repeat between salt and free forms of one compound.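 In K562 cells expressing nanoluciferase-fused kinases, luminescence was recorded at 4 h intervals between 2 and 18 h, normalized as percent of control with DMSO at 100% and a positive control at 0%. A significant (2 sigma) signal drop marks a time point as decreased. The authors' rule for a hit is not shown and takes in more than the number of time points.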

Protein sequences, listed by entry. Tags and fused reporters are not part of them. Lines headed by an entry give the natural chain unless they say otherwise; changes in a name come on top.
UniProt P00519, whole entry: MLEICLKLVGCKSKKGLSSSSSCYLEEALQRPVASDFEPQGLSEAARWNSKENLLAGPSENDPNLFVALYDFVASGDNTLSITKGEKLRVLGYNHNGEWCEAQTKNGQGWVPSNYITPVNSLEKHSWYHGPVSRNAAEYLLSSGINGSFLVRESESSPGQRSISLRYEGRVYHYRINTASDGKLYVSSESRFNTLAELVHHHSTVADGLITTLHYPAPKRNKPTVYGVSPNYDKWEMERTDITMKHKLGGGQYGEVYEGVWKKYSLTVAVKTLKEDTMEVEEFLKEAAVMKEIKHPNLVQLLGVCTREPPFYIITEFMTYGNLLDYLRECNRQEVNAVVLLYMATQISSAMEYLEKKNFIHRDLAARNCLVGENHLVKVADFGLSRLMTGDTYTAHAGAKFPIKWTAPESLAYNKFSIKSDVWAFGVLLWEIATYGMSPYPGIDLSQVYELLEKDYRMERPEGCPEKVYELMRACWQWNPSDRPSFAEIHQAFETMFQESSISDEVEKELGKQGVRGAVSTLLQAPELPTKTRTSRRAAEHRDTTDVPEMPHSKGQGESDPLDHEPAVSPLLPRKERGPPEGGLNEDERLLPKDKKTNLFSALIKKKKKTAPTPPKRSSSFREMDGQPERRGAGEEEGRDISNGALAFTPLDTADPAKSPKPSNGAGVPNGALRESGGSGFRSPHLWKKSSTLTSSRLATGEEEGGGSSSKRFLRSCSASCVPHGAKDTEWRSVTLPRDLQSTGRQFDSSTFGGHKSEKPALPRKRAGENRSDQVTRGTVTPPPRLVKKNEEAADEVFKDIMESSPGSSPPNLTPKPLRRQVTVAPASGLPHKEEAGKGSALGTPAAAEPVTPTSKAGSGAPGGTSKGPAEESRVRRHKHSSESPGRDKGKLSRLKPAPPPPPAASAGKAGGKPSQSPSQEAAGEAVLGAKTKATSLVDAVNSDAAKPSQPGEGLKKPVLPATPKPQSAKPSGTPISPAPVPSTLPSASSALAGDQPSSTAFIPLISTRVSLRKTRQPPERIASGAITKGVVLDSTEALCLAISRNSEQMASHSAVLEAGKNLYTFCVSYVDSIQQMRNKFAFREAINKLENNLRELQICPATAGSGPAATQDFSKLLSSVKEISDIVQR
UniProt P31749: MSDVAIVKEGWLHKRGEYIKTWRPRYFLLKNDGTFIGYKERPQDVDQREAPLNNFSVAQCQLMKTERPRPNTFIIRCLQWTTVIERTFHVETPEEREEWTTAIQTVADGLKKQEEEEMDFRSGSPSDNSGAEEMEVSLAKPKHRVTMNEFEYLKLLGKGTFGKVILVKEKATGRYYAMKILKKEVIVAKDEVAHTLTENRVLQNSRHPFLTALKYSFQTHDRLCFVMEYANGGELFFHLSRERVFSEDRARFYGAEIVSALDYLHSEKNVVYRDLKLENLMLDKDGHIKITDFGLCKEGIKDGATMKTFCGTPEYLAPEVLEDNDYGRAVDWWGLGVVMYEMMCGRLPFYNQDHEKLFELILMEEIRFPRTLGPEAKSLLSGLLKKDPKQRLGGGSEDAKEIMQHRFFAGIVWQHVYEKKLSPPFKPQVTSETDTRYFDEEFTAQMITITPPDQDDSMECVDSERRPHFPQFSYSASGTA
UniProt Q9UM73: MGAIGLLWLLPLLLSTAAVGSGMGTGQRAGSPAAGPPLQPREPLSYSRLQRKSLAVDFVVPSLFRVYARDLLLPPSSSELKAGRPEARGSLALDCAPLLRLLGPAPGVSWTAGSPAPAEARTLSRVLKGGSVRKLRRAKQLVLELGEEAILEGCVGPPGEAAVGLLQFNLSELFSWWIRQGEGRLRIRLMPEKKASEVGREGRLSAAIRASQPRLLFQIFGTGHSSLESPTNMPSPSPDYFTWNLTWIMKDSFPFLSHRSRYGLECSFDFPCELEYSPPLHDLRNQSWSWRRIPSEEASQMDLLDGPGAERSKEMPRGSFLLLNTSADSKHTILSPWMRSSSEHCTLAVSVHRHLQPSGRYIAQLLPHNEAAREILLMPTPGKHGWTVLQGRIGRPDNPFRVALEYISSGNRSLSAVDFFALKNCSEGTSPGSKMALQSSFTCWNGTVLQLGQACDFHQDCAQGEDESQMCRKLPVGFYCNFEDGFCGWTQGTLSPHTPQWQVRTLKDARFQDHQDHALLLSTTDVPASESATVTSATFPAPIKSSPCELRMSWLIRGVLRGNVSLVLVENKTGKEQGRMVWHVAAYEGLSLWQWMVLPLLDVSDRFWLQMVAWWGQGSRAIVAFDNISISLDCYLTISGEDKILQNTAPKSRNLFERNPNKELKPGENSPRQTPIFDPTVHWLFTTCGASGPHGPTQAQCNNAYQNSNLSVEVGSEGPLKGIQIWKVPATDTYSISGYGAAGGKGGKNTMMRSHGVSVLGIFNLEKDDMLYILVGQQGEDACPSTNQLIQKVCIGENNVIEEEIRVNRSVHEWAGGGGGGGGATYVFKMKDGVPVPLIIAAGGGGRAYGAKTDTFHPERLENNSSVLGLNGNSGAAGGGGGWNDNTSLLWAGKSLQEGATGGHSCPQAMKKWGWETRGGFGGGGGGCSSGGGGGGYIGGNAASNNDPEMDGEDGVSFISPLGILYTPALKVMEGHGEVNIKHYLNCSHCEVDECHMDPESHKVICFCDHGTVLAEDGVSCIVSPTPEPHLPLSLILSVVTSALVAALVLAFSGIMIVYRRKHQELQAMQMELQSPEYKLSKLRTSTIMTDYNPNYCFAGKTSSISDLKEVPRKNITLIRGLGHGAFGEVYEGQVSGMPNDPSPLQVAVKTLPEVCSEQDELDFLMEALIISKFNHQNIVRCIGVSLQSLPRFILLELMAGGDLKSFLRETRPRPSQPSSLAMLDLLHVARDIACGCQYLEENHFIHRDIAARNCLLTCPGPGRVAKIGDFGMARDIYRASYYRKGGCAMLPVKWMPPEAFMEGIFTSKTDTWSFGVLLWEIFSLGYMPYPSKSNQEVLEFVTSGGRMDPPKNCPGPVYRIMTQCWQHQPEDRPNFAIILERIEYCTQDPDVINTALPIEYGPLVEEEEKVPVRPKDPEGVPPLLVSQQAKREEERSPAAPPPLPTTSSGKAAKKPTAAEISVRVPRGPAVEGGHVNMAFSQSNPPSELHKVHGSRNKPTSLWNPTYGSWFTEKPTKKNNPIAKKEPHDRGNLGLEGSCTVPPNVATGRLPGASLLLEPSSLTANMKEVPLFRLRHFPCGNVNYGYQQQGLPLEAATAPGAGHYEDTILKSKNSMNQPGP
UniProt P10398: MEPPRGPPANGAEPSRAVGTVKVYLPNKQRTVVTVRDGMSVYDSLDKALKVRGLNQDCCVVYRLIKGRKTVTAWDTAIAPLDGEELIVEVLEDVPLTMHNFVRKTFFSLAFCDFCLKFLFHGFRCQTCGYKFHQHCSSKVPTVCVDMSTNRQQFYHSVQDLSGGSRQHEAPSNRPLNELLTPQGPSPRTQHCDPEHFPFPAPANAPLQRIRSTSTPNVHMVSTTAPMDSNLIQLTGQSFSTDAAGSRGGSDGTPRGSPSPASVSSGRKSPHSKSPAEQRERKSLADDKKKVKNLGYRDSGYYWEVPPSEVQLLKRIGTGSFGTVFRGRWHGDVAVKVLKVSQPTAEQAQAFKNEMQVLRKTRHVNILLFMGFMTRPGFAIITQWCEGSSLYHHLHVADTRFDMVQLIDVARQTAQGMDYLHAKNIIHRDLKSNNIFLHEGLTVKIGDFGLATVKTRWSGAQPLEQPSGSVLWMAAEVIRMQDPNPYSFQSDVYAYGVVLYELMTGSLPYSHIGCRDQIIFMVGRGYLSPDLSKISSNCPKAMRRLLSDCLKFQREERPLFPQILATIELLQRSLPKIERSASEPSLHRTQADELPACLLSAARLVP
UniProt O14965: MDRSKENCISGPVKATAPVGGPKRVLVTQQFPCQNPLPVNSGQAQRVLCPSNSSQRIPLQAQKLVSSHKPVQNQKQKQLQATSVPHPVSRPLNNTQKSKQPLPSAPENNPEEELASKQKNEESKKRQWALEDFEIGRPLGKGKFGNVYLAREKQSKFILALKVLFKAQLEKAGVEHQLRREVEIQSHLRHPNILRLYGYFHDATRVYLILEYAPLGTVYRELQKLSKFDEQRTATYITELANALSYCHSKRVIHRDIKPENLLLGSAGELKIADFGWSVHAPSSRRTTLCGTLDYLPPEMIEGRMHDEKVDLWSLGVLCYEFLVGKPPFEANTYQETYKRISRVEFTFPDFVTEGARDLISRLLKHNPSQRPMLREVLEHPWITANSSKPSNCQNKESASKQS
UniProt Q96GD4, whole entry: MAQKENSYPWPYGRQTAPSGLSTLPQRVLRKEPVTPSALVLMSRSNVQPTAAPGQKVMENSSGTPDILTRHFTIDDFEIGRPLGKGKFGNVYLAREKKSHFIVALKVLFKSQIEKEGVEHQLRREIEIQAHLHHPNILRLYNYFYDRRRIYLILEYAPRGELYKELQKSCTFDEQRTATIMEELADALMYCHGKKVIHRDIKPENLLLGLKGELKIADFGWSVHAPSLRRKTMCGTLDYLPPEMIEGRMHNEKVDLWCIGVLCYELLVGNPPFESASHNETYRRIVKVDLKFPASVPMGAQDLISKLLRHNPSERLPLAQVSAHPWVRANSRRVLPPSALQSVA
UniProt Q9UQB9: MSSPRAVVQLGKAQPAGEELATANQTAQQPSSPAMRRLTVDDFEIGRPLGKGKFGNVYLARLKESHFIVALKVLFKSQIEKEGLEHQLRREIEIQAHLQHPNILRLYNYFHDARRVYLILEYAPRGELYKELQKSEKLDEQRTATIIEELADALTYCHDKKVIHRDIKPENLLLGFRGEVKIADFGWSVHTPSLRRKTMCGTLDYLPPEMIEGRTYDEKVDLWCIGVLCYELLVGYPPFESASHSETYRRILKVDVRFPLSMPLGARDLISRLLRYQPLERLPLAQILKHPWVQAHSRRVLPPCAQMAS
UniProt P51451: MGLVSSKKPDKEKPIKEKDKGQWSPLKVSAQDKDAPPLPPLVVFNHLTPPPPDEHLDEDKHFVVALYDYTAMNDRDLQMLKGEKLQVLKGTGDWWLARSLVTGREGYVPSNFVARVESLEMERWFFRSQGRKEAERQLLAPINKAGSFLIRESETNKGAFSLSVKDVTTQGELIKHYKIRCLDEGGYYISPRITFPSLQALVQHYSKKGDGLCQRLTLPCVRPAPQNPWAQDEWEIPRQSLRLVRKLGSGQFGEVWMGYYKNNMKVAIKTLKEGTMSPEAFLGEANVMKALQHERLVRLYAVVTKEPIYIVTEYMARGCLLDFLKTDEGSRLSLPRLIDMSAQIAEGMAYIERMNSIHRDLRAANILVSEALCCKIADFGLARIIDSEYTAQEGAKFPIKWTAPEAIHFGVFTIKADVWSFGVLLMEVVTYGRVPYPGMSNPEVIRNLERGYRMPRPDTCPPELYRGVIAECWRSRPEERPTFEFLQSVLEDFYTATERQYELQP
UniProt P51813: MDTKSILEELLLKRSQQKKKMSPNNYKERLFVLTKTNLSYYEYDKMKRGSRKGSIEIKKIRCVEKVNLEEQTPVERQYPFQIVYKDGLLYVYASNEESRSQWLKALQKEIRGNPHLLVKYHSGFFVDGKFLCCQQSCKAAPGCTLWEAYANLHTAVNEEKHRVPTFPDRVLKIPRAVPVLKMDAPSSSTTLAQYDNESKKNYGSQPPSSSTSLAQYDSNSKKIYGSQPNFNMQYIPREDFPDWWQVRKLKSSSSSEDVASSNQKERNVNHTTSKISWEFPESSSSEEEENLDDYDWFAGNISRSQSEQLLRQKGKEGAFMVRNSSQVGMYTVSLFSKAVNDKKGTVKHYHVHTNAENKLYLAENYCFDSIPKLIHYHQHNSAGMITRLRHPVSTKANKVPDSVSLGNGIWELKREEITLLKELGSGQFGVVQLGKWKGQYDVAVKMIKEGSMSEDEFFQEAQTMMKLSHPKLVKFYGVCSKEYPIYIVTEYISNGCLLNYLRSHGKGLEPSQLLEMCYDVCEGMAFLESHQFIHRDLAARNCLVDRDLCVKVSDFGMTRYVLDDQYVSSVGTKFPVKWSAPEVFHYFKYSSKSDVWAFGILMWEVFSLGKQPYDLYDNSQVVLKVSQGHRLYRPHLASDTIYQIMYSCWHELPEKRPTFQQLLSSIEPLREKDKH

Legend:
Assay in all cases: kinase-Nluc reporter destabilization hit call (1 = scored as downregulated) (binary); higher = compound decreases kinase abundance
Settings in all cases: K562; 2-18 h
ABL1 = ABL1 (UniProt P00519)
AKT1 = AKT1 (UniProt P31749)
ALK = ALK (UniProt Q9UM73)
ARAF = ARAF (UniProt P10398)
AURKA = AURKA (UniProt O14965)
AURKB = AURKB (UniProt Q96GD4)
AURKC = AURKC (UniProt Q9UQB9)
BLK = BLK (UniProt P51451)
BMX = BMX (UniProt P51813)
BRAF = BRAF (UniProt P15056)

Row | Structure (SMILES) | kinase-Nluc reporter destabilization hit call (ABL1) | kinase-Nluc reporter destabilization hit call (AKT1) | kinase-Nluc reporter destabilization hit call (ALK) | kinase-Nluc reporter destabilization hit call (ARAF) | kinase-Nluc reporter destabilization hit call (AURKA) | kinase-Nluc reporter destabilization hit call (AURKB) | kinase-Nluc reporter destabilization hit call (AURKC) | kinase-Nluc reporter destabilization hit call (BLK) | kinase-Nluc reporter destabilization hit call (BMX) | kinase-Nluc reporter destabilization hit call (BRAF)
1 | COC(=O)[C@]1(C)CC[C@]2(C(=O)O[C@@H]3O[C@H](CO)[C@@H](O)[C@H](O)[C@H]3O)CC[C@]3(C)C(=CC[C@@H]4[C@@]5(C)C[C@H](O)[C@H](O[C@@H]6OC[C@@H](O[C@@H]7O[C@H](CO)[C@@H](O)[C@H](O)[C@H]7O)[C@H](O)[C@H]6O)[C@@](C)(CO)C5CC[C@]43C)[C@H]2C1 (stereo not given in full) [Esculentoside H] (10 µM) | inactive: 0 | inactive: 0 | inactive: 0 | inactive: 0 | inactive: 0 | inactive: 0 | inactive: 0 | inactive: 0 | inactive: 0 | inactive: 0
2 | C=CC(=O)Nc1cc(C(=O)NC)cc(-c2n[nH]c3ccccc23)c1 (10 µM) | inactive: 0 | inactive: 0 | inactive: 0 | inactive: 0 | inactive: 0 | inactive: 0 | inactive: 0 | inactive: 0 | inactive: 0 | inactive: 0
3 | COc1ccc2c(c1)C[C@H](C(=O)Nc1ccc(-c3cn[nH]c3)cc1OCCN(C)C)CO2 [Chroman 1] (10 µM) | inactive: 0 | inactive: 0 | inactive: 0 | inactive: 0 | inactive: 0 | inactive: 0 | inactive: 0 | inactive: 0 | inactive: 0 | inactive: 0
4 | NC(=O)c1ccc2nc(-c3ccc(C4(N)CCC4)cc3)c(-c3ccccc3)n2n1 (10 µM) | inactive: 0 | inactive: 0 | inactive: 0 | inactive: 0 | inactive: 0 | inactive: 0 | inactive: 0 | inactive: 0 | inactive: 0 | inactive: 0
5 | O=C(Nc1cc(Cl)cc(Cl)c1)Nc1cc(Cl)cc(Cl)c1 (10 µM) | inactive: 0 | inactive: 0 | inactive: 0 | inactive: 0 | inactive: 0 | inactive: 0 | inactive: 0 | inactive: 0 | inactive: 0 | inactive: 0
6 | Cc1nc(Nc2ncc(C(=O)Nc3c(C)cccc3Cl)s2)cc(N2CCN(C(=O)CCCCCCC(=O)N[C@H](C(=O)N3C[C@H](O)C[C@H]3C(=O)NCc3ccc(-c4scnc4C)cc3)C(C)(C)C)CC2)n1 (2.5 µM) | inactive: 0 | inactive: 0 | inactive: 0 | inactive: 0 | inactive: 0 | inactive: 0 | inactive: 0 | inactive: 0 | active: 1 | inactive: 0
7 | CC(=O)Nc1nc(C)c(-c2cc3c(c(S(C)(=O)=O)c2)C(=O)N([C@@H](C)C2CC2)C3)s1 (2.5 µM) | inactive: 0 | inactive: 0 | inactive: 0 | inactive: 0 | inactive: 0 | inactive: 0 | inactive: 0 | inactive: 0 | inactive: 0 | inactive: 0
8 | CC(=O)Nc1nc(C)c(-c2ccc(Cl)c(S(=O)(=O)NCCO)c2)s1 (10 µM) | inactive: 0 | inactive: 0 | inactive: 0 | inactive: 0 | inactive: 0 | inactive: 0 | inactive: 0 | inactive: 0 | inactive: 0 | inactive: 0
9 | CNS(=O)(=O)C[C@H]1CC[C@H](N(C)c2[nH]cnc3nccc2-3)CC1 [Oclacitinib (maleate)] (10 µM) | inactive: 0 | inactive: 0 | inactive: 0 | inactive: 0 | inactive: 0 | inactive: 0 | inactive: 0 | inactive: 0 | inactive: 0 | inactive: 0
10 | O=c1ccc2cc(O)c(O)cc2o1 [Esculetin] (10 µM) | inactive: 0 | inactive: 0 | inactive: 0 | inactive: 0 | inactive: 0 | inactive: 0 | inactive: 0 | inactive: 0 | inactive: 0 | inactive: 0
11 | C=CC(=O)Nc1cccc(Oc2nc(Nc3ccc(N4CCN(C)CC4)cc3)nc3ccsc23)c1 [Olmutinib] (2.5 µM) | inactive: 0 | inactive: 0 | inactive: 0 | inactive: 0 | inactive: 0 | inactive: 0 | inactive: 0 | inactive: 0 | inactive: 0 | inactive: 0
12 | CNC(=O)c1c(C)oc2cc(Oc3ncnc4cc(OC)c(OC)cc34)ccc12 [Fruquintinib] (10 µM) | inactive: 0 | inactive: 0 | inactive: 0 | inactive: 0 | inactive: 0 | inactive: 0 | inactive: 0 | inactive: 0 | inactive: 0 | inactive: 0
13 | C=CC(=O)N1CCC[C@@H](n2c(=O)n(-c3ccc(Oc4ccccc4)cc3)c3c(N)nccc32)C1 [Tolebrutinib] (10 µM) | inactive: 0 | inactive: 0 | inactive: 0 | inactive: 0 | inactive: 0 | inactive: 0 | inactive: 0 | inactive: 0 | inactive: 0 | inactive: 0
14 | CCn1c2ccccc2c2cc(Nc3ccnc(NCCCN4CCOCC4)n3)ccc21 (2.5 µM) | inactive: 0 | inactive: 0 | inactive: 0 | inactive: 0 | inactive: 0 | inactive: 0 | inactive: 0 | inactive: 0 | inactive: 0 | inactive: 0
15 | O=C1NC(=O)C(c2ccccc2[N+](=O)[O-])=C1Nc1ccc(O)c(Cl)c1 (10 µM) | inactive: 0 | inactive: 0 | inactive: 0 | inactive: 0 | inactive: 0 | inactive: 0 | inactive: 0 | inactive: 0 | inactive: 0 | inactive: 0
16 | CC(C)c1cnn2c(NCc3ccccc3)cc(NCCCCCCN)nc12 [BS-181 (hydrochloride)] (10 µM) | inactive: 0 | inactive: 0 | inactive: 0 | inactive: 0 | inactive: 0 | inactive: 0 | inactive: 0 | inactive: 0 | inactive: 0 | inactive: 0
17 | C1=N/C2=N/c3ccc(OCCN4CCCC4)c(c3)COC/C=C/COCc3cccc(c3)C(=C1)N2 [Pacritinib] (2.5 µM) | inactive: 0 | inactive: 0 | inactive: 0 | inactive: 0 | inactive: 0 | inactive: 0 | inactive: 0 | inactive: 0 | inactive: 0 | inactive: 0
18 | CCn1c(-c2nonc2N)nc2c(C#CCO)ncc(OCCCN)c21 [AKT Kinase Inhibitor] (10 µM) | inactive: 0 | inactive: 0 | inactive: 0 | inactive: 0 | inactive: 0 | inactive: 0 | inactive: 0 | inactive: 0 | inactive: 0 | inactive: 0
19 | Cn1cc(-c2cn3nccc3c(-c3cnn([C@]4(CC#N)C[C@@H](C#N)C4)c3)n2)cn1 (10 µM) | inactive: 0 | inactive: 0 | inactive: 0 | inactive: 0 | inactive: 0 | inactive: 0 | inactive: 0 | inactive: 0 | inactive: 0 | inactive: 0
20 | COc1cc(Nc2nc3ccccc3nc2NS(=O)(=O)c2ccc(NC(=O)c3ccc(C)c(OC)c3)cc2)cc(OC)c1 (10 µM) | inactive: 0 | inactive: 0 | inactive: 0 | inactive: 0 | inactive: 0 | inactive: 0 | inactive: 0 | inactive: 0 | inactive: 0 | inactive: 0
21 | COc1ccc(COc2cc3oc(=O)c4cc(C(C)O)ccc4c3cc2OC)cc1 (stereo not given) [Palomid 529] (2.5 µM) | inactive: 0 | inactive: 0 | inactive: 0 | inactive: 0 | inactive: 0 | inactive: 0 | inactive: 0 | inactive: 0 | inactive: 0 | inactive: 0
22 | O=C(N=c1sccn1Cc1ccccc1)c1c[nH]c2ncccc12 (10 µM) | inactive: 0 | inactive: 0 | inactive: 0 | inactive: 0 | inactive: 0 | inactive: 0 | inactive: 0 | inactive: 0 | inactive: 0 | inactive: 0
23 | O=c1sn(-c2cccc3ccccc23)c(=O)n1Cc1ccccc1 [Tideglusib] (10 µM) | inactive: 0 | inactive: 0 | inactive: 0 | inactive: 0 | inactive: 0 | inactive: 0 | inactive: 0 | inactive: 0 | inactive: 0 | inactive: 0
24 | COc1cc(-c2cnc(N)c(-c3ccc(NC(=O)c4cn(CC5CCOCC5)cc(-c5ccc(C)cn5)c4=O)cc3F)c2)ccc1OC[C@H]1COCCO1 [DS-1205b (free base)] (10 µM) | inactive: 0 | inactive: 0 | inactive: 0 | inactive: 0 | inactive: 0 | inactive: 0 | inactive: 0 | inactive: 0 | inactive: 0 | inactive: 0
25 | Cc1ccc(CNC(=O)N2CCC[C@]3(CCN(Cc4ccc(Cl)c(Cl)c4)C3)C2)cc1 (10 µM) | inactive: 0 | inactive: 0 | inactive: 0 | inactive: 0 | inactive: 0 | inactive: 0 | inactive: 0 | inactive: 0 | inactive: 0 | inactive: 0
26 | CC(C)(C)S(=O)(=O)c1cc2c(Nc3ccc4scnc4c3)ccnc2cc1OCCOCCOCCOCCOCC(=O)Nc1cccc2c1CN(C1CCC(=O)NC1=O)C2=O (stereo not given) [PROTAC RIPK degrader-6] (10 µM) | inactive: 0 | inactive: 0 | inactive: 0 | inactive: 0 | inactive: 0 | inactive: 0 | inactive: 0 | inactive: 0 | inactive: 0 | inactive: 0
27 | CN1CCC(c2ccccc2CC(C)(C)Nc2nc(N3CCOCC3)nc(-n3c(S(C)(=O)=O)nc4ccccc43)n2)CC1 (10 µM) | inactive: 0 | inactive: 0 | inactive: 0 | inactive: 0 | inactive: 0 | inactive: 0 | inactive: 0 | inactive: 0 | inactive: 0 | inactive: 0
28 | CN(C/C=C/C(=O)Nc1ccc(C(=O)Nc2cccc(Nc3ncc(Cl)c(-c4c[nH]c5ccccc45)n3)c2)cc1)CCCNC(=O)NCCOCCOCCOCCNC(=O)CCCC[C@@H]1SC[C@@H]2NC(=O)N[C@@H]21 (2.5 µM) | inactive: 0 | inactive: 0 | inactive: 0 | inactive: 0 | inactive: 0 | inactive: 0 | inactive: 0 | inactive: 0 | inactive: 0 | inactive: 0

Given as tab-separated lines: entries from further up
Row	Structure (SMILES)	kinase-Nluc reporter destabilization hit call (ABL1)	kinase-Nluc reporter destabilization hit call (AKT1)	kinase-Nluc reporter destabilization hit call (ALK)	kinase-Nluc reporter destabilization hit call (ARAF)	kinase-Nluc reporter destabilization hit call (AURKA)	kinase-Nluc reporter destabilization hit call (AURKB)	kinase-Nluc reporter destabilization hit call (AURKC)	kinase-Nluc reporter destabilization hit call (BLK)	kinase-Nluc reporter destabilization hit call (BMX)	kinase-Nluc reporter destabilization hit call (BRAF)
24	COc1cc(-c2cnc(N)c(-c3ccc(NC(=O)c4cn(CC5CCOCC5)cc(-c5ccc(C)cn5)c4=O)cc3F)c2)ccc1OC[C@H]1COCCO1 [DS-1205b (free base)] (10 µM)	inactive: 0	inactive: 0	inactive: 0	inactive: 0	inactive: 0	inactive: 0	inactive: 0	inactive: 0	inactive: 0	inactive: 0
25	Cc1ccc(CNC(=O)N2CCC[C@]3(CCN(Cc4ccc(Cl)c(Cl)c4)C3)C2)cc1 (10 µM)	inactive: 0	inactive: 0	inactive: 0	inactive: 0	inactive: 0	inactive: 0	inactive: 0	inactive: 0	inactive: 0	inactive: 0
